Counter-ions that a name gives are not always drawn. The list shows a part of the results. Hit calls seldom repeat between salt and free forms of one compound.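 Kinases were expressed as nanoluciferase fusions in K562 cells and luminescence was read every 4 h between 2 and 18 h as percent of control, DMSO set to 100% and a positive control to 0%. A time point counts as decreased when the signal drops significantly (2 sigma). The hit call is the authors' own, does not follow from the count of time points alone, and its rule is not shown.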
Tests used:
Experiment in all cases: kinase-Nluc reporter destabilization hit call (1 = scored as downregulated) (binary); higher = compound decreases kinase abundance
Conditions in all cases: K562; 2-18 h
ABL1 = ABL1 (UniProt P00519)
AKT1 = AKT1 (UniProt P31749)
ALK = ALK (UniProt Q9UM73)
ARAF = ARAF (UniProt P10398)
AURKA = AURKA (UniProt O14965)
AURKB = AURKB (UniProt Q96GD4)
AURKC = AURKC (UniProt Q9UQB9)
BLK = BLK (UniProt P51451)
BMX = BMX (UniProt P51813)
BRAF = BRAF (UniProt P15056)

Protein sequences, listed by entry. Tags and fused reporters are not part of them. Lines headed by an entry give the natural chain unless they say otherwise; changes in a name come on top.
UniProt P00519, whole entry: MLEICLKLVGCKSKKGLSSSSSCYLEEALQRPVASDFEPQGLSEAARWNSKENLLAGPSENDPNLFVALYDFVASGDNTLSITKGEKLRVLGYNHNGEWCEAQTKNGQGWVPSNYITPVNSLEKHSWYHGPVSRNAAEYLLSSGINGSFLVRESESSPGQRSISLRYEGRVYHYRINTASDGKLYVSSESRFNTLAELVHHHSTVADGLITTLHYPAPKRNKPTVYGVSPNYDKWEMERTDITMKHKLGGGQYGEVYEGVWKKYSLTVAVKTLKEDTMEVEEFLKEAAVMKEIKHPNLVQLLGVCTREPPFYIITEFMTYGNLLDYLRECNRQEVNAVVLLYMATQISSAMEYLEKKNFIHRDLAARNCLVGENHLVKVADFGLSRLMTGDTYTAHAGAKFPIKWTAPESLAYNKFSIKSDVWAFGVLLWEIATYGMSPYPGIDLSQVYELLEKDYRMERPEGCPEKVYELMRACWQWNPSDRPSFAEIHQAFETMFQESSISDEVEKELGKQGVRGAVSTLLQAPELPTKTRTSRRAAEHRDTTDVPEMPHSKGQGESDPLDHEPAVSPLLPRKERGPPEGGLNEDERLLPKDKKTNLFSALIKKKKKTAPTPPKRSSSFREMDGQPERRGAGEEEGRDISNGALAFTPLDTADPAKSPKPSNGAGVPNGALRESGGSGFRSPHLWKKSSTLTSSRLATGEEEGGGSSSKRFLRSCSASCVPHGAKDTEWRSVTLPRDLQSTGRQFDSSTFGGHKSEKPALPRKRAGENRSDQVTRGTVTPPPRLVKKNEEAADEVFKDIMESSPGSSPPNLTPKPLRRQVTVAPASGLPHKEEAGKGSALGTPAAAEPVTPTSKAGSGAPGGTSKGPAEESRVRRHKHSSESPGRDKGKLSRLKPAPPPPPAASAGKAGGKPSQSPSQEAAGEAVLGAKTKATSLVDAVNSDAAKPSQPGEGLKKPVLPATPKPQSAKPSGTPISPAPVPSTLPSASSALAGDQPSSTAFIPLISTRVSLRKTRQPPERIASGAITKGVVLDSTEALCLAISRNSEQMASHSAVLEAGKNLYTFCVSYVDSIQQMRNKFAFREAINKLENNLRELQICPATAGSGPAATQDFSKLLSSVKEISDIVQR
UniProt P31749: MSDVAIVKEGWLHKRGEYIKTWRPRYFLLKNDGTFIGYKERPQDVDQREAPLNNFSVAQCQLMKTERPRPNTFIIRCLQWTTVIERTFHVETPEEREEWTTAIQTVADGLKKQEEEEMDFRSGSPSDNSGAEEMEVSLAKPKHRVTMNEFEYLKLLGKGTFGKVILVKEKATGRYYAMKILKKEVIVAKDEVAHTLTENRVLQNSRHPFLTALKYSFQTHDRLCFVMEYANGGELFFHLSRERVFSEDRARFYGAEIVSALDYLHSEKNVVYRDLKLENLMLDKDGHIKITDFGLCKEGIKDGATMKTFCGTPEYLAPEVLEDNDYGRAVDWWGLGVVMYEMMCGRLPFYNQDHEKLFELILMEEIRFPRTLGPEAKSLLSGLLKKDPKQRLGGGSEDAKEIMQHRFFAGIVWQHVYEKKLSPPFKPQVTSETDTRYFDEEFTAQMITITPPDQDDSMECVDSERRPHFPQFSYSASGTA
UniProt Q9UM73: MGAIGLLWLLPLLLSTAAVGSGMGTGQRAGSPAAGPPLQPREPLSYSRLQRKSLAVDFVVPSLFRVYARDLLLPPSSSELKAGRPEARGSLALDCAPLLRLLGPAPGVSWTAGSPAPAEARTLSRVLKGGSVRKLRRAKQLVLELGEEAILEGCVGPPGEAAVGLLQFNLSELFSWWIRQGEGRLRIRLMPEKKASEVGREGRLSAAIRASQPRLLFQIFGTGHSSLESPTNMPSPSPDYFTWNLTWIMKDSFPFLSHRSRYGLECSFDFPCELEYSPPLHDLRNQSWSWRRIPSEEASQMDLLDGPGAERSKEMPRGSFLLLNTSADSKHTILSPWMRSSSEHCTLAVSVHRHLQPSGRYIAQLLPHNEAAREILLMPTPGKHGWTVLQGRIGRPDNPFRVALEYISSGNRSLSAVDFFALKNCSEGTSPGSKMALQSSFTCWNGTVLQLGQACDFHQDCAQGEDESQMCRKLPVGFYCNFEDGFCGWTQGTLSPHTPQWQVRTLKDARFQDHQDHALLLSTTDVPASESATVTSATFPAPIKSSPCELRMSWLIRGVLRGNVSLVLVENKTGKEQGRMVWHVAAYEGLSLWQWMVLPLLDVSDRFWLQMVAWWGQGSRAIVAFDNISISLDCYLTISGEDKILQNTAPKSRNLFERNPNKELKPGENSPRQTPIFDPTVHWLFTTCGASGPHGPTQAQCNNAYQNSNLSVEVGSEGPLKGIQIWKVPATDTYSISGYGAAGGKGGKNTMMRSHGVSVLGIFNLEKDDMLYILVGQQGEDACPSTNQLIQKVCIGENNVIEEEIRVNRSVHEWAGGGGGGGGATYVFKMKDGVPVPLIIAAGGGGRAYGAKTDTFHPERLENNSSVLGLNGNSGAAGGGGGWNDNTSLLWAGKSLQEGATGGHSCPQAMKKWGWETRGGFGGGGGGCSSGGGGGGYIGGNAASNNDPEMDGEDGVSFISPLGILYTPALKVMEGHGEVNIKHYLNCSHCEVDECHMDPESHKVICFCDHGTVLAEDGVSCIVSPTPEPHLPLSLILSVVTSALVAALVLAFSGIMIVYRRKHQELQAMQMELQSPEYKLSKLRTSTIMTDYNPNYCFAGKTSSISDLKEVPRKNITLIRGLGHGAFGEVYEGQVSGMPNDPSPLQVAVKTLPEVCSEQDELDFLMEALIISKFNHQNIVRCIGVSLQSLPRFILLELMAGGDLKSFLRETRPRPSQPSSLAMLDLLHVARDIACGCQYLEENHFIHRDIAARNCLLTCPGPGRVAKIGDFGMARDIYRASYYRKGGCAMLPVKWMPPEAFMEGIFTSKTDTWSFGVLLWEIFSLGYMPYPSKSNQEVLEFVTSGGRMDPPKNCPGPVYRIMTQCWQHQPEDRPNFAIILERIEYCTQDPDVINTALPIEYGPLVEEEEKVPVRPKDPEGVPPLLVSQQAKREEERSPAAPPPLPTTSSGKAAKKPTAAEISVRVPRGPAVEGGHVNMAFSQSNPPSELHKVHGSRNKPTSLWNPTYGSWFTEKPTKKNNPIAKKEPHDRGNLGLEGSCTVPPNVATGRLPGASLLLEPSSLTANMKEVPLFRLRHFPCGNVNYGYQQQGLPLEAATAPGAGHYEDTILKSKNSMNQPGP
UniProt P10398: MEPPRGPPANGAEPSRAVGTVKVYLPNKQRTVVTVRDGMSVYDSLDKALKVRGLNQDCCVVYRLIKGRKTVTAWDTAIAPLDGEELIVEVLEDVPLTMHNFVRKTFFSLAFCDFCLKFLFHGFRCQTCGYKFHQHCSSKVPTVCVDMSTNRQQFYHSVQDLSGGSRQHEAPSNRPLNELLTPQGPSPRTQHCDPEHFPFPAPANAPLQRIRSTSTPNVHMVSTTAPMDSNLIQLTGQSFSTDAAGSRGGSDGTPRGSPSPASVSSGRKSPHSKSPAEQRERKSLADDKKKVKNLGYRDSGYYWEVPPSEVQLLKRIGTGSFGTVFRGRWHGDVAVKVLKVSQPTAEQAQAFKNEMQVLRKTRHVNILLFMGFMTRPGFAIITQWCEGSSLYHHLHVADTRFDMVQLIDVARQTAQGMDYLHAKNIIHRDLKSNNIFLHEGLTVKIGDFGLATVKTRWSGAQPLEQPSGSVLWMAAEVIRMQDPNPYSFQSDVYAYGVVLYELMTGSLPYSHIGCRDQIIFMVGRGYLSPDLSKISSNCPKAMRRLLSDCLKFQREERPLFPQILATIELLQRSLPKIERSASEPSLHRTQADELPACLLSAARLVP
UniProt Q96GD4, whole entry: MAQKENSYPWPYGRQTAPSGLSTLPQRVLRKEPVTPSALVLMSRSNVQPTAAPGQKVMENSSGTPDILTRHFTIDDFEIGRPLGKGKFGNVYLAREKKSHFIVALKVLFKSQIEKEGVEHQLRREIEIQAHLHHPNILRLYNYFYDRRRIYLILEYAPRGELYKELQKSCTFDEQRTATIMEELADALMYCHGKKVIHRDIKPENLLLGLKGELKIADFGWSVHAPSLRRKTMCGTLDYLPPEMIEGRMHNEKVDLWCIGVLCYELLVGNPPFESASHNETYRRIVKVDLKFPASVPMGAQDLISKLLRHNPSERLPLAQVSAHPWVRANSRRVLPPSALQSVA
UniProt Q9UQB9: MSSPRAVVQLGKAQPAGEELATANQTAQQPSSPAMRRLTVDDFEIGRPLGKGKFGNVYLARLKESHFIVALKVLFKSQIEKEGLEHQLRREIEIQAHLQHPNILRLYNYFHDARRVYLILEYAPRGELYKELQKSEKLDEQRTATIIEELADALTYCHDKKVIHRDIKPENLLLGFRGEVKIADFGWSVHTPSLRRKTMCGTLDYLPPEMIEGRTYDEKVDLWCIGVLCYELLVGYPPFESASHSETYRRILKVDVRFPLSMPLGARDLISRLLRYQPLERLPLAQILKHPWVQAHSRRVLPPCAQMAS
UniProt P51451: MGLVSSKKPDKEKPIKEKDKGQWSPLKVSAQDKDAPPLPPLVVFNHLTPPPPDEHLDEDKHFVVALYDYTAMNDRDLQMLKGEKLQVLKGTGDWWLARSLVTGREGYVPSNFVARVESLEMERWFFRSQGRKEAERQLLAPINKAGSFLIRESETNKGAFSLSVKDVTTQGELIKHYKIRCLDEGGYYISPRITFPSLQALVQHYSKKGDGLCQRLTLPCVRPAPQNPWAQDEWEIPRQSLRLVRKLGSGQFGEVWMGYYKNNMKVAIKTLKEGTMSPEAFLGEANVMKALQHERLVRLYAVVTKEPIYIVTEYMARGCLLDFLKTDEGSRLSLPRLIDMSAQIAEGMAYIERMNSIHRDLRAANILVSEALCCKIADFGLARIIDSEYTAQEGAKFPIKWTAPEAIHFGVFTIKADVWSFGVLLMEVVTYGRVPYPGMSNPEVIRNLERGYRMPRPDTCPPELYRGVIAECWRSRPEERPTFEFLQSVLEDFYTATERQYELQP
UniProt P51813: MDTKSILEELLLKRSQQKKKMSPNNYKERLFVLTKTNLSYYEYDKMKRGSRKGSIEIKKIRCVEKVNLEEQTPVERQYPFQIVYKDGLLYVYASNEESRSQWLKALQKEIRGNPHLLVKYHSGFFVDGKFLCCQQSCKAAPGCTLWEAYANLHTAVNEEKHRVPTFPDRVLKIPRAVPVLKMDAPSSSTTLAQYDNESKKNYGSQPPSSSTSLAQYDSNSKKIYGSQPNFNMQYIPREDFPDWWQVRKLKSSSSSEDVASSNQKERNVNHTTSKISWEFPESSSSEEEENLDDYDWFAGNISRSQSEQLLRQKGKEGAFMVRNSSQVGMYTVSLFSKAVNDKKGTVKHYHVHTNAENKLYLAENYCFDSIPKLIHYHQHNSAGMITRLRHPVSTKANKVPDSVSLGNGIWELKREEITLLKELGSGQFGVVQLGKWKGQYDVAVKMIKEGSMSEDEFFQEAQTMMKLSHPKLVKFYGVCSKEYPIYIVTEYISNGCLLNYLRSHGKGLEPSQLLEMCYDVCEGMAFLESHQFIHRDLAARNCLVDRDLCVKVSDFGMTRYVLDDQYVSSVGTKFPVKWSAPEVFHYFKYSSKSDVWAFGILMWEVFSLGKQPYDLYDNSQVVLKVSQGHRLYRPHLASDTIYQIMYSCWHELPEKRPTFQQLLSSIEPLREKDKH
UniProt P15056, whole entry, looked up: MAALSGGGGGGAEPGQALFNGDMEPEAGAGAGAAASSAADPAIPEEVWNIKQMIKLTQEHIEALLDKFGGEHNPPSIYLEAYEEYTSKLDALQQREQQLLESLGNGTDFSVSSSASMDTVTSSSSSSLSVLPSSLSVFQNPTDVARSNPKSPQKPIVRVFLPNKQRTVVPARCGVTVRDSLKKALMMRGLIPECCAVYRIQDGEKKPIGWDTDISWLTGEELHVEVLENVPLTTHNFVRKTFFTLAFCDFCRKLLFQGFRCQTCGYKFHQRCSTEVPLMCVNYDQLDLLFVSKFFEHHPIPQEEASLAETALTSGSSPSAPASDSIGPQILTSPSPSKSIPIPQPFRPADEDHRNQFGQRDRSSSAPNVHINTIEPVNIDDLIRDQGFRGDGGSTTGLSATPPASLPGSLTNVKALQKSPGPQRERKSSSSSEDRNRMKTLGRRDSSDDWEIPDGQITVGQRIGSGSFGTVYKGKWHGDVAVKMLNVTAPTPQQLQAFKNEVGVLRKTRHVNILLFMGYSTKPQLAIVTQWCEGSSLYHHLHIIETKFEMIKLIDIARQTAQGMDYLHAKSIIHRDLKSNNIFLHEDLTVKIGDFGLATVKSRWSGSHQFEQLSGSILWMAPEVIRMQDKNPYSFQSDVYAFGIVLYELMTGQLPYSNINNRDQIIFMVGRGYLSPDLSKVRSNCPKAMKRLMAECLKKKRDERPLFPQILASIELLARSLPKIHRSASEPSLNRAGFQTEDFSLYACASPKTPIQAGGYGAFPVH

Measured: kinase-Nluc reporter destabilization hit call

CN1CCN(c2ccc(NC(=O)c3ccc(C#N)o3)c(N3CCCCC3)c2)CC1 (10 µM)
inactive: ABL1 = 0 | AKT1 = 0 | ALK 0 | ARAF 0 | AURKA 0 | AURKB 0 | AURKC 0 | BLK 0 | BMX 0 | BRAF 0

COc1cc(OC)c(/C=C/S(=O)(=O)Cc2ccc(OC)c(NCC(=O)O)c2)c(OC)c1 [Rigosertib (sodium)] (10 µM)
inactive: ABL1 = 0 | AKT1 = 0 | ALK 0 | ARAF 0 | AURKA 0 | AURKB 0 | AURKC 0 | BLK 0 | BMX 0 | BRAF 0

O=c1cc(-c2ccc(O)cc2)oc2cc(O)c([C@@H]3O[C@H](CO)[C@@H](O)[C@H](O)[C@H]3O)c(O)c12 [Isovitexin] (10 µM)
inactive: ABL1 = 0 | AKT1 = 0 | ALK 0 | ARAF 0 | AURKA 0 | AURKB 0 | AURKC 0 | BLK 0 | BMX 0 | BRAF 0

CC(=O)NCC(=O)N[C@@H](C)C(=O)N[C@@H](CCC(N)=O)C(=O)N[C@@H](Cc1ccccc1)C(=O)N[C@@H](CO)C(=O)N[C@@H](CCCCN)C(=O)N[C@H](C(=O)N[C@@H](C)C(=O)N[C@@H](C)C(=O)N[C@@H](CCCCN)C(=O)O)[C@@H](C)O (10 µM)
inactive: ABL1 = 0 | AKT1 = 0 | ALK 0 | ARAF 0 | AURKA 0 | AURKB 0 | AURKC 0 | BLK 0 | BMX 0 | BRAF 0

CC(C)(O)c1cc(Nc2cc(Oc3cn(C4CC4)nc3C3CCOCC3)ccn2)ccn1 (10 µM)
inactive: ABL1 = 0 | AKT1 = 0 | ALK 0 | ARAF 0 | AURKA 0 | AURKB 0 | AURKC 0 | BLK 0 | BMX 0 | BRAF 0

CS(=O)(=O)N1CCc2c(-c3cnc(N)nc3)nc(N3CCOCC3)nc21 (10 µM)
inactive: ABL1 = 0 | AKT1 = 0 | ALK 0 | ARAF 0 | AURKA 0 | AURKB 0 | AURKC 0 | BLK 0 | BMX 0 | BRAF 0

C=CC(=O)Nc1cccc(Nc2nc(Nc3ccc(Oc4ccnc(C(=O)NC)c4)cc3)ncc2F)c1 (2.5 µM)
inactive: ABL1 = 0 | AKT1 = 0 | ALK 0 | ARAF 0 | AURKA 0 | AURKB 0 | AURKC 0 | BLK 0 | BMX 0 | BRAF 0

CC[C@H](C)[C@H](NC(=O)[C@H](CCCCN)NC(=O)[C@H](CC(C)C)NC(=O)[C@@H]1CCCN1C(=O)[C@H](CCC(=O)O)NC(=O)[C@H](Cc1ccc(O)cc1)NC(=O)[C@@H](NC(=O)[C@H](CO)NC(=O)CNC(=O)[C@H](CO)NC(=O)[C@H](CCCN=C(N)N)NC(=O)[C@H](CCCCN)NC(=O)[C@@H](NC(=O)[C@@H](N)CCCN=C(N)N)[C@@H](C)O)C(C)C)C(=O)O [Malantide] (10 µM)
inactive: ABL1 = 0 | AKT1 = 0 | ALK 0 | ARAF 0 | AURKA 0 | AURKB 0 | AURKC 0 | BLK 0 | BMX 0 | BRAF 0

O=C1c2c(O)cc(O)cc2O[C@H](c2cc(O)c(O)c(O)c2)[C@H]1O [Dihydromyricetin] (10 µM)
inactive: ABL1 = 0 | AKT1 = 0 | ALK 0 | ARAF 0 | AURKA 0 | AURKB 0 | AURKC 0 | BLK 0 | BMX 0 | BRAF 0

COc1cccc2cc(-c3nc([C@H]4CC[C@H](C(=O)O)CC4)n4ncnc(N)c34)[nH]c12 (2.5 µM)
inactive: ABL1 = 0 | AKT1 = 0 | ALK 0 | ARAF 0 | AURKA 0 | AURKB 0 | AURKC 0 | BLK 0 | BMX 0 | BRAF 0

Cc1cc(/C=C2\CC/C(=C\c3cc(C)c(O)c(C)c3)C2=O)cc(C)c1O [Pentagamavunon-1] (2.5 µM)
inactive: ABL1 = 0 | AKT1 = 0 | ALK 0 | ARAF 0 | AURKA 0 | AURKB 0 | AURKC 0 | BLK 0 | BMX 0 | BRAF 0

O=C(NCc1cccc(O)c1)c1cc2cc(F)ccc2[nH]1 (10 µM)
inactive: ABL1 = 0 | AKT1 = 0 | ALK 0 | ARAF 0 | AURKA 0 | AURKB 0 | AURKC 0 | BLK 0 | BMX 0 | BRAF 0

O=C(N/N=C/c1ccc([N+](=O)[O-])o1)c1ccc(O)cc1 [Nifuroxazide] (10 µM)
inactive: ABL1 = 0 | AKT1 = 0 | ALK 0 | ARAF 0 | AURKA 0 | AURKB 0 | AURKC 0 | BLK 0 | BMX 0 | BRAF 0

Clc1ccc(Nc2cccc(-c3cn[nH]c3)c2)cc1 (10 µM)
inactive: ABL1 = 0 | AKT1 = 0 | ALK 0 | ARAF 0 | AURKA 0 | AURKB 0 | AURKC 0 | BLK 0 | BMX 0 | BRAF 0

C[C@@H]1CN(Cc2cn[nH]c2-c2ccc(C#N)cc2)CCN1c1ccc(C(F)(F)F)cn1 (2.5 µM)
inactive: ABL1 = 0 | AKT1 = 0 | ALK 0 | ARAF 0 | AURKA 0 | AURKB 0 | AURKC 0 | BLK 0 | BMX 0 | BRAF 0

Cc1occ2c1C(=O)c1c(O)ccc(O)c1C2 (2.5 µM)
inactive: ABL1 = 0 | AKT1 = 0 | ALK 0 | ARAF 0 | AURKA 0 | AURKB 0 | AURKC 0 | BLK 0 | BMX 0 | BRAF 0

CCS(=O)(=O)c1ccc(Oc2cc(O[C@@H](C)CO)cc(C(=O)Nc3ccn(C)n3)c2)cn1 (10 µM)
inactive: ABL1 = 0 | AKT1 = 0 | ALK 0 | ARAF 0 | AURKA 0 | AURKB 0 | AURKC 0 | BLK 0 | BMX 0 | BRAF 0

Cn1cc(-c2ccc3ncc(Cc4ccc5ncccc5c4)n3n2)cn1 (10 µM)
inactive: ABL1 = 0 | AKT1 = 0 | ALK 0 | ARAF 0 | AURKA 0 | AURKB 0 | AURKC 0 | BLK 0 | BMX 0 | BRAF 0

Cc1c(Br)c(Br)c2c3c1nc(N1CCNCC1)n3CCC2 [SEL120-34A (monohydrochloride)] (2.5 µM)
inactive: ABL1 = 0 | AKT1 = 0 | ALK 0 | ARAF 0 | AURKA 0 | AURKB 0 | AURKC 0 | BLK 0 | BMX 0 | BRAF 0

2 records drawn at random from the list so far:
Cn1cc(-c2ccc3ncc(Cc4ccc5ncccc5c4)n3n2)cn1 (10 µM)
inactive: ABL1 = 0 | AKT1 = 0 | ALK 0 | ARAF 0 | AURKA 0 | AURKB 0 | AURKC 0 | BLK 0 | BMX 0 | BRAF 0

C[C@@H]1CN(Cc2cn[nH]c2-c2ccc(C#N)cc2)CCN1c1ccc(C(F)(F)F)cn1 (2.5 µM)
inactive: ABL1 = 0 | AKT1 = 0 | ALK 0 | ARAF 0 | AURKA 0 | AURKB 0 | AURKC 0 | BLK 0 | BMX 0 | BRAF 0

Remaining list, next part:

Cc1ccc(-n2c(-c3ccc(O)cc3O)n[nH]c2=O)cc1 (10 µM)
inactive: ABL1 = 0 | AKT1 = 0 | ALK 0 | ARAF 0 | AURKA 0 | AURKB 0 | AURKC 0 | BLK 0 | BMX 0 | BRAF 0

N#Cc1c[nH]c2ccc(-c3ccc(-c4c(O)cccc4O)cc3)cc12 (10 µM)
inactive: ABL1 = 0 | AKT1 = 0 | ALK 0 | ARAF 0 | AURKA 0 | AURKB 0 | AURKC 0 | BLK 0 | BMX 0 | BRAF 0

NC(=O)c1nc(-c2c(F)cccc2Cl)oc1Nc1ccc(C(=O)N2CCOCC2)cc1 (10 µM)
inactive: ABL1 = 0 | AKT1 = 0 | ALK 0 | ARAF 0 | AURKA 0 | AURKB 0 | AURKC 0 | BLK 0 | BMX 0 | BRAF 0

O=C(Nc1nccs1)C(c1cc(F)ccc1O)N1Cc2ccc(-c3ccc(N4CCNCC4)cc3)cc2C1=O (racemic) (10 µM)
inactive: ABL1 = 0 | AKT1 = 0 | ALK 0 | ARAF 0 | AURKA 0 | AURKB 0 | AURKC 0 | BLK 0 | BMX 0 | BRAF 0

O=C(c1ccc(NS(=O)(=O)c2cccc3cccnc23)cc1)N1CCN(CC2CC2)CC1 [Mitapivat] (10 µM)
inactive: ABL1 = 0 | AKT1 = 0 | ALK 0 | ARAF 0 | AURKA 0 | AURKB 0 | AURKC 0 | BLK 0 | BMX 0 | BRAF 0

C[C@H]1CNC(=O)c2cnn3ccc(nc23)N[C@H](C)c2cc(F)ccc2O1 [Repotrectinib] (2.5 µM)
inactive: ABL1 = 0 | AKT1 = 0 | ALK 0 | ARAF 0 | AURKA 0 | AURKB 0 | AURKC 0 | BLK 0 | BMX 0 | BRAF 0

CS(=O)(=O)N1CCN(Cc2cn3cc(-c4cnc(N)nc4)nc(N4CCOCC4)c3n2)CC1 (10 µM)
inactive: ABL1 = 0 | AKT1 = 0 | ALK 0 | ARAF 0 | AURKA 0 | AURKB 0 | AURKC 0 | BLK 0 | BMX 0 | BRAF 0

CN(C)CCCNc1ccn2ncc(-c3ccc4c(c3)OCO4)c2n1 (10 µM)
inactive: ABL1 = 0 | AKT1 = 0 | ALK 0 | ARAF 0 | AURKA 0 | AURKB 0 | AURKC 0 | BLK 0 | BMX 0 | BRAF 0

COc1ccc(S(=O)(=O)N(CCO)c2ccccc2CN(C)CC=Cc2ccc(Cl)cc2)cc1 (2.5 µM)
inactive: ABL1 = 0 | AKT1 = 0 | ALK 0 | ARAF 0 | AURKA 0 | AURKB 0 | AURKC 0 | BLK 0 | BMX 0 | BRAF 0

Source: the supplement of paper PMC12823440, “Inhibitors supercharge kinase turnover through native proteolytic circuits” (Nature, 2025)
